Test results published in the supplement of paper PMC3334620.
Whole data set: some 33,000 sequences, median “E-score (-0.5 to 0.5)” near -8e-05, cut for the highest 2% near 0.23. The list shows a part of the results.

The sequences below were run against T1, Nrg2 (UniProt P38082) (assay: PBM E-score (8-mer binding enrichment) (E-score (-0.5 to 0.5)); higher = stronger / more preferred TF binding). Conditions: protein concentration: 100 nM; construct: GST-full length.
T1 sequence: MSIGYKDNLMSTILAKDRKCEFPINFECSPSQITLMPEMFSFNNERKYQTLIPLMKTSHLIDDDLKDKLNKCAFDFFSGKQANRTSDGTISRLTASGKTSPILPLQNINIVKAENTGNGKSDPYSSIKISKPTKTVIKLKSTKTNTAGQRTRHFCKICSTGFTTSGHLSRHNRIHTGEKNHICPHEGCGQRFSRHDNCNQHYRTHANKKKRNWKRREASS
How it was run: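 Universal all-10-mer Agilent arrays, fresh or stripped once, were converted to double-stranded form by primer extension. GST-tagged yeast transcription factors from PURExpress in vitro transcription/translation, full-length or DNA-binding domain only, were applied at about 100-200 nM and detected with fluorescent anti-GST. After masliner normalisation, the Universal PBM Analysis Suite scored each ungapped eight-base word together with its reverse complement by E-score.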

Sequence	PBM E-score
GCCTCCCA	-0.254
ACGTTGCT	0.171
CACTGTAC	-0.0202
CATAATGC	-0.00966
AGTTTTTG	0.171
GATTTACA	0.155
GCACCGAC	-0.0591
GAAGCTGA	0.0775
CACTACGA	-0.133
GGATTAGA	-0.0145
AGATAACG	0.209
CAATGGAA	0.131
ATAAATAA	0.237
GTGAGCCA	-6e-05
ATAAGTAA	0.0712
CCTCTTCA	-0.123
CTTTACTA	0.26
CCGTGAAA	0.0709
CGGGATCC	0.12
ACGGTTTG	-0.0837
GCCCCTGA	0.292
AACTTGCA	0.0765
AGCGTGGG	-0.132
AGATTATG	0.114
AATTAGCC	-0.057

Four entries drawn at random from those above:
Sequence	PBM E-score
CATAATGC	-0.00966
GCCCCTGA	0.292
GATTTACA	0.155
GAAGCTGA	0.0775

Shown with bars between the fields: part of the list above
Sequence | PBM E-score
CATAATGC | -0.00966
AGTTTTTG | 0.171
CCTCTTCA | -0.123

Additional records follow.

Sequence	PBM E-score
CACATGCG	0.113
CCATCCCC	-0.0249
ACATCATA	0.0906
AGAAAAAC	-0.186
TCGTCACA	0.154
CTCTTAGA	-0.0806
ATTACGAG	0.145
CCGGTCCC	-0.0863
CATTCTTC	0.147
TACCAAAA	-0.0424
GTAACGAC	-0.112
ATGGGCTG	-0.0381
AGATACGA	0.153
CACTAGCA	-0.0399
CAGGGACG	0.306
CGAATGGC	0.13
TCGGCCAA	0.0199
TCGTGCCA	-0.0394
TAGCTCCA	-0.118
CGAACCGA	0.136
AGTGGCGG	-0.0307
CCCACTGC	0.14
GGCCACGA	-0.0839
CAGCCCAA	-0.0423
CCACTTTC	-0.102

Sequence	PBM E-score
AATCACCA	0.112
AACTAAAT	0.0907
ACAGGCCC	-0.223
GTGGAGGA	-0.106
CTGACTGC	-0.0266
GGAAATTA	0.115
AGCTGGTA	-0.0877
CTCAGTCA	-0.0332
GACACGCC	0.004
ACATCGAT	0.0579
ATTAGAGC	0.18
TACTCAGA	0.0952
ACTAAGGA	0.0414
CGGATAGC	-0.0568
TCGCCCGA	-0.0729
GATTTGAA	0.0894
CCGTCAAA	-0.129
GAGAGCCC	-0.363
ACAGTCTG	-0.0563
GAGCCAGA	-0.143
AACTCGCT	-0.0197
CAAATTTC	0.0486
TACGATAA	0.0265
AGCTCGCA	0.0522
GACCACTC	-0.0798

Sequence	PBM E-score
AGCATCAT	-0.0702
ACATACCG	-0.19
CTCGCGAA	-0.00662
GCCTGATA	-0.076
AAAGGAAG	-0.0979
GTACCTCA	0.0876
CTAGGCAC	-0.162
GGTTAGTA	0.0325
AAAAGTAC	0.00544
ACCCCTTG	0.00362
ACTAGTTC	0.0532
CCAGATTA	0.0238
ATGTTACA	0.099
ATATACAG	0.168
CTAGCAGC	0.0191
CACTGTTC	-0.0687
TAAGTTCA	-0.0818
GCGAACGC	-0.243
CAGCTTGC	-0.0553
GCAGTCTA	-0.101
AGTTCGGG	0.171
GCATCGTA	-0.105
CGCAGTAA	0.0692
GAAATTAC	0.161
GCAGCTAA	0.0815

Sequence	PBM E-score
ATCTGCAG	0.108
GAGAGCGC	0.059
CGCGACCG	-0.0433
ACGCCTAT	-0.0501
CAAGCCGG	0.178
TCGACTCA	0.196
AAGCTTTC	0.0799
ATTTCCTA	0.0878
TCAGCAAA	0.0537
ATCCGTCA	0.134
AAGTTTCT	0.164
ACGGGCGG	-0.211
AGCATCGG	-0.136
CGTTAGCA	0.0603
GGTTTCCA	-0.138
GACGAAAA	0.171
CTTAGCCC	-0.0969
AGGATCTG	-0.221
AGCCGGCT	-0.0683
ACTGCTAC	0.0334
AGTTAGTA	0.069
GTTGTTAA	0.241
GCTATAAA	-0.0103
CTTAGCAC	-0.0734
TATGGAGA	0.0835

Sequence	PBM E-score
CCTGAATC	0.0585
AGGTACCT	-0.158
GAATGATC	-0.0614
CGTTCGTA	0.138
ACGTACCG	-0.106
CGTAAGAG	-0.0741
ACCATACA	-0.0448
GCTAAGAA	-0.103
AACCTACG	-0.0173
CAATATGG	0.055
CTCGACAA	0.00365
GTTTTGGA	-0.14
ACCCGTGG	-0.111
ATCGATAA	-0.0134
ATAGATGA	-0.0204
ATCCTTAC	-0.0956
CAGAGCCA	-0.207
AGGCTTTA	-0.254
CGGGCAAA	-0.00802
ACACGGAA	0.0623
CAGAACAC	-0.00155
GCGCTAGA	0.0437
TAACTCTA	-0.0441
TCGCTAGA	-0.0372
AAGGTTCA	8e-05

Sequence	PBM E-score
TGGCTTAA	0.0347
AGCACAGC	0.0974
AAGAGTAT	-0.132
AGGCCGAC	-0.0721
TTGGCCAA	0.0568
CAAATCCC	0.00106
CATATCCA	-0.0584
AACAGGCT	-0.0785
CACAAGAC	-0.244
CTGTCCGA	0.0142
ATGGATCA	0.0779
CCTGTGGC	-0.00031
AAGCCTGG	-0.195
AGTTTTAA	0.172
AGGCTACG	-0.301
GCGCGAAA	0.145
ACCGAACG	0.0212
GCTCGGAA	-0.0374
CCTAAACG	-0.165
GCTCCCTA	-0.241
GTAAAAAC	0.111
AGCTGTGG	0.00631
